{
  "source": "paper PMC6123365",
  "about": "“Pharmacokinetics of Nuciferine and N-Nornuciferine, Two Major Alkaloids From Nelumbo nucifera Leaves, in Rat Plasma and the Brain” (Frontiers in Pharmacology, 2018)",
  "assay": "In vitro recovery from the microdialysis probe with different perfusion fluids",
  "details": "2 μL/min",
  "key": {"[1]": {"details": "perfusion fluid aCSF containing 5 mM β-CD, 500 ng/mL"}, "[2]": {"details": "perfusion fluid aCSF containing 0.2% albumin, 500 ng/mL"}, "[3]": {"details": "perfusion fluid aCSF, 500 ng/mL standard solution"}},
  "data": [
    {"smiles": "COc1cc2c3c(c1OC)-c1ccccc1CC3NCC2", "note": "(stereo not drawn) [N-NF, N-nornuciferine]", "values": [
      {"measurement": "Recovery from the microdialysis probe", "setting": "[1]", "value": 15.82, "unit": "%"},
      {"measurement": "Recovery from the microdialysis probe", "setting": "[2]", "value": 11.61, "unit": "%"},
      {"measurement": "Recovery from the microdialysis probe", "setting": "[3]", "value": 14.93, "unit": "%"}
    ]},
    {"smiles": "COc1cc2c3c(c1OC)-c1ccccc1C[C@H]3N(C)CC2", "note": "[NF, nuciferine]", "values": [
      {"measurement": "Recovery from the microdialysis probe", "setting": "[1]", "value": 20.29, "unit": "%"},
      {"measurement": "Recovery from the microdialysis probe", "setting": "[2]", "value": 14.37, "unit": "%"},
      {"measurement": "Recovery from the microdialysis probe", "setting": "[3]", "value": 15.81, "unit": "%"}
    ]}
  ]
}
